{
  "source": "patent US5972379A",
  "about": "“Liposome composition and method for administering a quinolone” (Sequus Pharmaceuticals, Inc., priority 1998, dated 1999)",
  "test_system": "E. coli",
  "assay": "Minimum inhibitory concentration, broth microdilution (NCCLS M7-A)",
  "format": "cell-based",
  "conditions": "Escherichia coli, inoculum 5×10^5 CFU/ml",
  "procedure": "As described above, glycinyl-ciprofloxacin was prepared as set forth in Example 2A-2B and tested for antimicrobial activity in vitro, as described in Example 2C. The minimum inhibitory concentration of the drugs against the bacterial strains S. pyrogenes, E. faecalis, S. aureus, E. coli and P. aeruginosa were determined.\nMinimum inhibitory concentrations were determined by a broth microdilution technique following the National Committee for Clinical Laboratory Standards guidelines (NCCLS document M7-A, National Committee for Laboratory Standards, Villanova, Pa., 1994 Approved Standard for \"Methods for dilution antimicrobial susceptibility tests for bacteria that grow aerobically\") with a starting inoculum of 5×10^5 CFU/ml.",
  "data": [
    {"smiles": "O=C(O)c1cn(C2CC2)c2cc(N3CCNCC3)c(F)cc2c1=O", "note": "[ciprofloxacin, 1-cyclopropyl-6-fluoro-1,4-dihydro-4-oxo-7-(1-piperazinyl)-3-quinoline carboxylic acid]", "values": [
      {"measurement": "MIC", "result": "< 0.5", "unit": "µg/mL"}
    ]}
  ]
}
